Experimental data: paper PMC7718083
These are yes or no findings as the source states them, for the method shown. Some results given as binding are weak or reduced against the parent protein; the word gives no strength.

Assays:
[1] = molecular target: T1, Peroxiredoxin 1 (mouse (endogenous in C2C12 myotubes and mouse muscle)), P35700; assay: non-reducing SDS-PAGE with immunoblot; lysates of C2C12 myotubes (untreated or treated with 2.5-250 uM H2O2; in the test of alkylating agents also slices of mouse gastrocnemius muscle), alkylated (NEM, IAA or MMTS; then 75 mM MMTS) before and during lysis in RIPA buffer; 15% non-reducing gel; monomer band 20-25 kDa, disulphide-linked dimer band 35-50 kDa; conditions: remark: other sources report otherwise
T1 chain: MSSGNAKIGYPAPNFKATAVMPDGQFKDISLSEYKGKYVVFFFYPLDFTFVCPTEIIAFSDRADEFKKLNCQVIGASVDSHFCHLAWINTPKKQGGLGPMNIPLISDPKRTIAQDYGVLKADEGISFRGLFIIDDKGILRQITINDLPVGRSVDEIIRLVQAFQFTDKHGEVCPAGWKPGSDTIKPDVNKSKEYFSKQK

[2] = molecular target: T1, Peroxiredoxin 1 (mouse (endogenous in …)); assay: non-reducing SDS-PAGE with immunoblot; lysates of isolated FDB muscle fibers of adult and old mice, quiescent, electrically stimulated to contract for up to 15 min, or rested afterwards; 75 mM MMTS before and during lysis; 15% non-reducing gel; monomer and disulphide-linked dimer bands; conditions: remark: other sources report otherwise
[3] = molecular target: T2, Peroxiredoxin 2 (mouse (endogenous in C2C12 myotubes and mouse muscle)), Q61171; assay: non-reducing SDS-PAGE with immunoblot; lysates of C2C12 myotubes (untreated or treated with 2.5-250 uM H2O2; in the test of alkylating agents also slices of mouse gastrocnemius muscle), alkylated (NEM, IAA or MMTS; then 75 mM MMTS) before and during lysis in RIPA buffer; 15% non-reducing gel; monomer band 20-25 kDa, disulphide-linked dimer band 35-50 kDa; conditions: remark: other sources report otherwise
T2 chain: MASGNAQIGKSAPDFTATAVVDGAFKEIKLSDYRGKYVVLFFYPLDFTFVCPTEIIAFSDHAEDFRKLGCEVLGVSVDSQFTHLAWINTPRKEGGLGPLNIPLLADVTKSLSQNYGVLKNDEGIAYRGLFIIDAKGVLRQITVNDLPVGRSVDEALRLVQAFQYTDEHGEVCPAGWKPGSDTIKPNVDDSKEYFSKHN

[4] = molecular target: T2, Peroxiredoxin 2 (mouse (endogenous in …)); assay: non-reducing SDS-PAGE with immunoblot; lysates of isolated FDB muscle fibers of adult and old mice, quiescent, electrically stimulated to contract for up to 15 min, or rested afterwards; 75 mM MMTS before and during lysis; 15% non-reducing gel; monomer and disulphide-linked dimer bands; conditions: remark: other sources report otherwise
[5] = molecular target: Peroxiredoxin 3 (mouse (endogenous in C2C12 myotubes and mouse muscle)) (UniProt P20108); assay: as above
[6] = molecular target: Peroxiredoxin 3 (mouse (endogenous in C2C12 myotubes and mouse muscle)) (UniProt P20108); assay: non-reducing SDS-PAGE with immunoblot; lysates of C2C12 myotubes (untreated or treated with 2.5-250 uM H2O2; in the test of alkylating agents also slices of mouse gastrocnemius muscle), alkylated (NEM, IAA or MMTS; then 75 mM MMTS) before and during lysis in RIPA buffer; 15% non-reducing gel; monomer band 20-25 kDa, disulphide-linked dimer band 35-50 kDa

B1: Peroxiredoxin 1, P35700 1-199 (protein)
chain: MSSGNAKIGYPAPNFKATAVMPDGQFKDISLSEYKGKYVVFFFYPLDFTFVCPTEIIAFSDRADEFKKLNCQVIGASVDSHFCHLAWINTPKKQGGLGPMNIPLISDPKRTIAQDYGVLKADEGISFRGLFIIDDKGILRQITINDLPVGRSVDEIIRLVQAFQFTDKHGEVCPAGWKPGSDTIKPDVNKSKEYFSKQK
- binding [1]: binds
- binding [2]: binds

B2: Peroxiredoxin 2, Q61171 1-198 (protein)
chain: MASGNAQIGKSAPDFTATAVVDGAFKEIKLSDYRGKYVVLFFYPLDFTFVCPTEIIAFSDHAEDFRKLGCEVLGVSVDSQFTHLAWINTPRKEGGLGPLNIPLLADVTKSLSQNYGVLKNDEGIAYRGLFIIDAKGVLRQITVNDLPVGRSVDEALRLVQAFQYTDEHGEVCPAGWKPGSDTIKPNVDDSKEYFSKHN
- binding [3]: binds
- binding [4]: binds

B3: Peroxiredoxin 3 (protein, UniProt P20108 63-257)
chain: TPAVTQHAPYFKGTAVVNGEFKELSLDDFKGKYLVLFFYPLDFTFVCPTEIVAFSDKANEFHDVNCEVVAVSVDSHFSHLAWINTPRKNGGLGHMNITLLSDITKQISRDYGVLLESAGIALRGLFIIDPNGVVKHLSVNDLPVGRSVEETLRLVKAFQFVETHGEVCPANWTPESPTIKPSPTASKEYFEKVHQ
- binding [5]: binds
- binding [6]: binds
